Positions count from the first letter of the chain named. These are yes or no findings as the source states them, for the method shown. Some results given as binding are weak or reduced against the parent protein; the word gives no strength. For some of these results: Where a sequence is shown, tags or fusion partners need not be part of it.
T1: pol30-Ung1E3 (yeast, UniProt P15873 1-258, IDCL DIDADFLKIEEL to DFDYDELKIEEL)
T1 construct: PCNA (POL30), yeast; source: yeast two-hybrid fusion (pAD-GAL4, strain YRG2)
T1 sequence: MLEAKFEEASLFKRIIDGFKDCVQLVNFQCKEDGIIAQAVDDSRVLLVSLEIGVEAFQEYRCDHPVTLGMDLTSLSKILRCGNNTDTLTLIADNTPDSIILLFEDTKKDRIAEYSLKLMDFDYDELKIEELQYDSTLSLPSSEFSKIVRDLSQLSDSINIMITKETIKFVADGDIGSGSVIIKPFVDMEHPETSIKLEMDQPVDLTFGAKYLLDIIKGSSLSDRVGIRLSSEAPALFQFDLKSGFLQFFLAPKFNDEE

T2: pol30-Pol32E5 (yeast, UniProt P15873 1-258, IDCL DIDADFLKIEEL to DADNDFLKISEL)
T2 construct: PCNA (POL30), yeast; source: yeast two-hybrid fusion (pAD-GAL4, strain YRG2)
T2 sequence: T1 sequence with F121A, Y123N, E125F, E129S

B1: GFP-tagged Rad27 (natural protein, yeast, UniProt P26793 1-382, looked up)
chain: MGIKGLNAIISEHVPSAIRKSDIKSFFGRKVAIDASMSLYQFLIAVRQQDGGQLTNEAGETTSHLMGMFYRTLRMIDNGIKPCYVFDGKPPDLKSHELTKRSSRRVETEKKLAEATTELEKMKQERRLVKVSKEHNEEAQKLLGLMGIPYIIAPTEAEAQCAELAKKGKVYAAASEDMDTLCYRTPFLLRHLTFSEAKKEPIHEIDTELVLRGLDLTIEQFVDLCIMLGCDYCESIRGVGPVTALKLIKTHGSIEKIVEFIESGESNNTKWKIPEDWPYKQARMLFLDPEVIDGNEINLKWSPPKEKELIEYLCDDKKFSEERVKSGISRLKKGLKSGIQGRLDGFFQVVPKTKEQLAAAAKRAQENKKLNKNKNKVTKGRR
notes: Rad27, yeast, tagged at its natural locus; source: yeast, GFP-tagged at the natural locus, in crude cell extract; not shown: GFP, C-terminal, kept
B2: Rad27 (natural protein, yeast, UniProt P26793 1-382, looked up)
chain: B1 chain
notes: Rad27 (endonuclease), yeast; also called pBD-Rad27; source: yeast two-hybrid fusion (pBD-GAL4, strain YRG2)

Key:
[1] = target: WT PCNA of the POL30 strain (yeast) (UniProt P15873); assay: ELISA; PCNA captured from crude yeast extract (3 mg/ml) on plates coated with anti-PCNA antibody; bound GFP-tagged partner detected by anti-GFP, normalised to the anti-His signal of PCNA
[2] = target: T1, pol30-Ung1E3; assay: two-hybrid; pAD-GAL4-PCNA WT or mutant (called bait) and pBD-GAL4-partner (called prey) in strain YRG2; 10-fold serial dilutions spotted on SC-Leu-Trp-His plates, 30°C, 3 d; growth similar to WT PCNA is denoted 1
[3] = target: T2, pol30-Pol32E5; assay: as above
[4] = target: proliferating cell nuclear antigen (PCNA) (yeast) (UniProt P15873); assay: as above

Row | Binder | binding [1] | binding [2] | binding [3] | binding [4]
1 | B1 | binds | – | – | –
2 | B2 | – | binds | binds | binds
